Experimental findings from PMC8750551 are described below.

By UniProt entry, the sequences of proteins in these tests, tags left out.
UniProt Q9BYV9: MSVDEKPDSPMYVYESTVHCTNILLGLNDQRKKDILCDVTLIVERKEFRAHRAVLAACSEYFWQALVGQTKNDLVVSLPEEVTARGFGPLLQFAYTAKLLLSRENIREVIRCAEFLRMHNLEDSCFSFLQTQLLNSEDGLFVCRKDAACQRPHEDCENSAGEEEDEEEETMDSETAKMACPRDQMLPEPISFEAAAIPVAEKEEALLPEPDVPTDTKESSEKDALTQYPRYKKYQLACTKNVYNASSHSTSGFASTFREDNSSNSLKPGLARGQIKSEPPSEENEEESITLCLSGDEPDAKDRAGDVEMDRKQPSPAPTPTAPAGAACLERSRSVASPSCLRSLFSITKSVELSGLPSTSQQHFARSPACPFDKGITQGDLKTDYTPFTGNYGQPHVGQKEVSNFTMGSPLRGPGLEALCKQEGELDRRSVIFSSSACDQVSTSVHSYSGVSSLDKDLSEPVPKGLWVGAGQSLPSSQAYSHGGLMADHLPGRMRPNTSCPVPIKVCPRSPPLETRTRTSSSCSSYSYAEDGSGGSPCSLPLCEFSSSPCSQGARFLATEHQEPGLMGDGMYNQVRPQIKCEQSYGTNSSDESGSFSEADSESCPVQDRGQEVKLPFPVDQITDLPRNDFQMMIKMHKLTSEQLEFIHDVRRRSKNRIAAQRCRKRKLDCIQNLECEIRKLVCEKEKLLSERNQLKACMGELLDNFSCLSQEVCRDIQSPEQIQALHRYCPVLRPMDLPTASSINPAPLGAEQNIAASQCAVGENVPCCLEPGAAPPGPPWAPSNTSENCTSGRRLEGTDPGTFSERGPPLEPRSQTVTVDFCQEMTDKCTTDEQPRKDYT
UniProt P53618: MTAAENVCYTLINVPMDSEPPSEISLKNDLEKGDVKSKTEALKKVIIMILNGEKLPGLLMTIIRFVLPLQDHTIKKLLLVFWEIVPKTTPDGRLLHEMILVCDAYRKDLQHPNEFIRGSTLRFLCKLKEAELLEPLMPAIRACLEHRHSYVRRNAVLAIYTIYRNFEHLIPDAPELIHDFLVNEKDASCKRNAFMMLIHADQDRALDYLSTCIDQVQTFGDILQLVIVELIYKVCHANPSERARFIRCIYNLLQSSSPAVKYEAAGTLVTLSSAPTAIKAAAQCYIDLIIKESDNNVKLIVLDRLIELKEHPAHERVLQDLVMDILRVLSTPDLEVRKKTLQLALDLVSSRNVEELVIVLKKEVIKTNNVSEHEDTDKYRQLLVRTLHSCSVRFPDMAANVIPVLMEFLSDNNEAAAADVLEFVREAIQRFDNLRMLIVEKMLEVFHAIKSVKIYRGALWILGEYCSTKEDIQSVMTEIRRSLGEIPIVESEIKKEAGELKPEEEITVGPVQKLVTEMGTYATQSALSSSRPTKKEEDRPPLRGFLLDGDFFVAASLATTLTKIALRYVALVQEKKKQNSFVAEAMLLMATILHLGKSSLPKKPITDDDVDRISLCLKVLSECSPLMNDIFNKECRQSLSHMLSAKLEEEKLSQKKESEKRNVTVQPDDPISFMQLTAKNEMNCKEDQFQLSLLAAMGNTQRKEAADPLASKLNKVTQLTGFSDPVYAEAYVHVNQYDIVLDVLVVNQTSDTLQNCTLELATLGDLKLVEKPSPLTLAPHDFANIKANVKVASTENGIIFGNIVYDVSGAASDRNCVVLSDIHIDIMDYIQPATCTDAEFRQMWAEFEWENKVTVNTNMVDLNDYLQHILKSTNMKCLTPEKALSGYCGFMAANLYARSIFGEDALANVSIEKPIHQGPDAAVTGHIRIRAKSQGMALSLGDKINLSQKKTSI
UniProt Q96AE4: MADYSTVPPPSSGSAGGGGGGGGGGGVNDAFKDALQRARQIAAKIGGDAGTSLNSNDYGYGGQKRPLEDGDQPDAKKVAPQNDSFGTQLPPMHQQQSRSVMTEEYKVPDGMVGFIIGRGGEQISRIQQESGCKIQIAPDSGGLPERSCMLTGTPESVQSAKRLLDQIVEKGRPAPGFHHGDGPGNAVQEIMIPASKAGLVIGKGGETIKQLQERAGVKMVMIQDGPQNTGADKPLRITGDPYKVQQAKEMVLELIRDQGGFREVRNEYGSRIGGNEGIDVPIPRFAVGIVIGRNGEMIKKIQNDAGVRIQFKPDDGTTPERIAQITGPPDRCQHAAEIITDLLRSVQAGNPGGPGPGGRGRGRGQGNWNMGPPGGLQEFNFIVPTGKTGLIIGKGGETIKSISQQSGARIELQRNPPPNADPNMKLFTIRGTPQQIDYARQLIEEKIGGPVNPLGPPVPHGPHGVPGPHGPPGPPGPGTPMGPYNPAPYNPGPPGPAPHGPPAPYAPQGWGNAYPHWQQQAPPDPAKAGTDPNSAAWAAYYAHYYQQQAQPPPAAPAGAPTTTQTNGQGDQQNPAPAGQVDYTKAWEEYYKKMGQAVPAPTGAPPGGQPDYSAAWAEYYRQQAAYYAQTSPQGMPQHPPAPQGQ
UniProt O00487: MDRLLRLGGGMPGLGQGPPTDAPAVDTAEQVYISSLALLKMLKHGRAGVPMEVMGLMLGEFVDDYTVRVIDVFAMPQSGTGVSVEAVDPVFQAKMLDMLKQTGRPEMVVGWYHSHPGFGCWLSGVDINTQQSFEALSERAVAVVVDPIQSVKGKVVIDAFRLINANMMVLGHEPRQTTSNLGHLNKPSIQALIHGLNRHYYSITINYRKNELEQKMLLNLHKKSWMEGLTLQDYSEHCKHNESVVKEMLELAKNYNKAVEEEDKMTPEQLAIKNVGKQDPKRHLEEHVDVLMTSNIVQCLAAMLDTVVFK
UniProt Q5RKV6: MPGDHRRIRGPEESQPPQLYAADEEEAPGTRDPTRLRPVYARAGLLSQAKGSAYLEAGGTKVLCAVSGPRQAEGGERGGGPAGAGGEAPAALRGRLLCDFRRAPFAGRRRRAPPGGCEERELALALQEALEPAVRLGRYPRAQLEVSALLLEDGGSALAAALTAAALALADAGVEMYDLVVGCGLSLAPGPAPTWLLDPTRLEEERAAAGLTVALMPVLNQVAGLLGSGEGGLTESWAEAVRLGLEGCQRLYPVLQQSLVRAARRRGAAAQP
UniProt P15924: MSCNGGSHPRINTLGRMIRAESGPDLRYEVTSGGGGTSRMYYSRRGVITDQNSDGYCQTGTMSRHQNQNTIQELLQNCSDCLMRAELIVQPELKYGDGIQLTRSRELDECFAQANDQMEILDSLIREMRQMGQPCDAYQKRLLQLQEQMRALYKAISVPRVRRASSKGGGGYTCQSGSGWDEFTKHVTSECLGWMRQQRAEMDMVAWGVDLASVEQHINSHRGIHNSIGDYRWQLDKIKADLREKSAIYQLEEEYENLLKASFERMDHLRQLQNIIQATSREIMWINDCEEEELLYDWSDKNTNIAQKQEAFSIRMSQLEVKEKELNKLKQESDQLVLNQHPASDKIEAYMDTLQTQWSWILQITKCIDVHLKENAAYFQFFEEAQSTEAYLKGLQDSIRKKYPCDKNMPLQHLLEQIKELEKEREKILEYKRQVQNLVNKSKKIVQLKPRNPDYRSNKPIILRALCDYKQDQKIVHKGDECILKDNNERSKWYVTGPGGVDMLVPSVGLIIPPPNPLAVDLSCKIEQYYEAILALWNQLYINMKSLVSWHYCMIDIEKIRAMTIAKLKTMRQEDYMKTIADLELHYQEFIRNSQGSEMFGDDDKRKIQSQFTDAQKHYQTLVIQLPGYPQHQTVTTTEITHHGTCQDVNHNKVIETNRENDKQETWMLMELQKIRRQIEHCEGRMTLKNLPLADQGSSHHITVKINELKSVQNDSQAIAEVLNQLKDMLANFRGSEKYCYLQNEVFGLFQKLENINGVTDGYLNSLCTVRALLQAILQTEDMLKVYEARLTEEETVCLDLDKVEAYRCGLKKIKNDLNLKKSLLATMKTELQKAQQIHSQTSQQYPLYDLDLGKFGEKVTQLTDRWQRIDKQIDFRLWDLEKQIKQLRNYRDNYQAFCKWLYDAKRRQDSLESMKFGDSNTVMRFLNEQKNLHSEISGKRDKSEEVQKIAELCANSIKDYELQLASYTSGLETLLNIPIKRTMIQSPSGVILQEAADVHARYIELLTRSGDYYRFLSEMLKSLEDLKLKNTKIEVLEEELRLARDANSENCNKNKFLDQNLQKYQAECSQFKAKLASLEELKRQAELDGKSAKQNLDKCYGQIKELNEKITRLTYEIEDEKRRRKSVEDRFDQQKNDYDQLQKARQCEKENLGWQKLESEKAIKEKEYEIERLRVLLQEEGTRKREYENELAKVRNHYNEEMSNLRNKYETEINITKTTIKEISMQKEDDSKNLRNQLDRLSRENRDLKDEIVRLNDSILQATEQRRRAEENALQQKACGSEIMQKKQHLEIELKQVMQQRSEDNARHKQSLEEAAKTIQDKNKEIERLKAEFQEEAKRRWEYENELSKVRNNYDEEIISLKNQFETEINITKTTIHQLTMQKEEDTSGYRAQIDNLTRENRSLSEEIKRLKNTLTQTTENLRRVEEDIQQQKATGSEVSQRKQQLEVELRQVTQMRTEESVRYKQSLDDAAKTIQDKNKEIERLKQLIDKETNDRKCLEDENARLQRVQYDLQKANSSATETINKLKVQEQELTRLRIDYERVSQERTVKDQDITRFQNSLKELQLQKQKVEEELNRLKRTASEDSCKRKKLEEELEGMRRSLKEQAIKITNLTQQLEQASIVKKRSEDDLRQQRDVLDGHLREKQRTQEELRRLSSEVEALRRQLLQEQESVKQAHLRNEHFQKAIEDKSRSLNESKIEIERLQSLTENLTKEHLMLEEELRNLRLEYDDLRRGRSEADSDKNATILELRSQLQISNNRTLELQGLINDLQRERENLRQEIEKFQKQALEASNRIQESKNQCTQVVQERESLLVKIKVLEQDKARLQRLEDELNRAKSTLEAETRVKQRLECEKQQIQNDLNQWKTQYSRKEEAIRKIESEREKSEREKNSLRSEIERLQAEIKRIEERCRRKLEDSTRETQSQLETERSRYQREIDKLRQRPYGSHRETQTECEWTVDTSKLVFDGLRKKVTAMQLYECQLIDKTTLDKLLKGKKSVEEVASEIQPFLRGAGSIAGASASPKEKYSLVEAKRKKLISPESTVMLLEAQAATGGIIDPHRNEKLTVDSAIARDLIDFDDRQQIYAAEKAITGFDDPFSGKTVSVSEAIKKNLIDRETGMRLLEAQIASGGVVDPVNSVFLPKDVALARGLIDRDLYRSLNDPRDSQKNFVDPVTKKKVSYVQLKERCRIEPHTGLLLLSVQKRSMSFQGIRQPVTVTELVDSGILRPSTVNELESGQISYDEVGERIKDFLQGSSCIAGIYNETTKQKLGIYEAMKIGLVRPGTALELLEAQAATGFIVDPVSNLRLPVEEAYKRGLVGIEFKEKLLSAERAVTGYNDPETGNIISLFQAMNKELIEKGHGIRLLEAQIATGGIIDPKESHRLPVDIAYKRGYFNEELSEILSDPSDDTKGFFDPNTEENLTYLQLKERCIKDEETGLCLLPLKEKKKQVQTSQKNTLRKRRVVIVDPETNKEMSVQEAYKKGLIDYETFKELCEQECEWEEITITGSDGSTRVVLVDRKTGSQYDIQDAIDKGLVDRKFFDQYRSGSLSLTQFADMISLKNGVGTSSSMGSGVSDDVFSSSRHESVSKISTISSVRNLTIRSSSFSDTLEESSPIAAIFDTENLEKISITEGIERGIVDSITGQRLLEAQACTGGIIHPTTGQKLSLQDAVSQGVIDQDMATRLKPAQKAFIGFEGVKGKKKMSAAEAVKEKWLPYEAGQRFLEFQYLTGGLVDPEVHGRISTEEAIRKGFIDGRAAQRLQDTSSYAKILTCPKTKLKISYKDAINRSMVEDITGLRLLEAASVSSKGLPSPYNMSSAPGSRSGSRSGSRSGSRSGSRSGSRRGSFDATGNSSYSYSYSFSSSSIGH
UniProt P54727: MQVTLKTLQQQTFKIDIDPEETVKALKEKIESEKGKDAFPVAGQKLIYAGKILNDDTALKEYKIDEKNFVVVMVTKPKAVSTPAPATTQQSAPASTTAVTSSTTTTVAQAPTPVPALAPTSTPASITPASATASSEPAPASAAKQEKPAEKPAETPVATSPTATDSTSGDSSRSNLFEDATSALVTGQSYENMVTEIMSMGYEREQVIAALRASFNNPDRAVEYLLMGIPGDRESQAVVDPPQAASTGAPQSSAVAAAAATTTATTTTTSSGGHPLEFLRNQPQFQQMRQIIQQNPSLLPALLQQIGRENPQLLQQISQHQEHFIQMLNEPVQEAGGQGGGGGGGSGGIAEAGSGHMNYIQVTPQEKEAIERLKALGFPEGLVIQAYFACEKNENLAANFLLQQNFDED
UniProt P84095: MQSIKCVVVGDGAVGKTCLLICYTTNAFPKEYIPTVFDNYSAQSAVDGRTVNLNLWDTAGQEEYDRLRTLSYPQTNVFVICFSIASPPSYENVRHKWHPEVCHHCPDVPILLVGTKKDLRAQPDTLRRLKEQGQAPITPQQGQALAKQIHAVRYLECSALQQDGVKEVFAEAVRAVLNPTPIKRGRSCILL

No constants are given. Whether binding was seen depends on the method and setting. Binding seen in cells or lysates may run through a third protein. These calls come from enrichment with a bait or labelling near it, and not all partners need be listed.

B1: RPN1 (protein, UniProt P04843 24-607)
chain: ASSEAPPLINEDVKRTVDLSSHLAKVTAEVVLAHLGGGSTSRATSFLLALEPELEARLAHLGVQVKGEDEEENNLEVRETKIKGKSGRFFTVKLPVALDPGAKISVIVETVYTHVLHPYPTQITQSEKQFVVFEGNHYFYSPYPTKTQTMRVKLASRNVESYTKLGNPTRSEDLLDYGPFRDVPAYSQDTFKVHYENNSPFLTITSMTRVIEVSHWGNIAVEENVDLKHTGAVLKGPFSRYDYQRQPDSGISSIRSFKTILPAAAQDVYYRDEIGNVSTSHLLILDDSVEMEIRPRFPLFGGWKTHYIVGYNLPSYEYLYNLGDQYALKMRFVDHVFDEQVIDSLTVKIILPEGAKNIEIDSPYEISRAPDELHYTYLDTFGRPVIVAYKKNLVEQHIQDIVVHYTFNKVLMLQEPLLVVAAFYILFFTVIIYVRLDFSITKDPAAEARMKVACITEQVLTLVNKRIGLYRHFDETVNRYKQSRDISTLNSGKKSLETEHKALTSEIALLQSRLKTEGSDLCDRVSEMQKLDAQVKELVLKSAVEAERLVAGKLKKDTYIENEKLISGKRQELVTKIDHILDAL
B2: ACO2 (enzyme, UniProt Q99798 28-780)
chain: QRAKVAMSHFEPNEYIHYDLLEKNINIVRKRLNRPLTLSEKIVYGHLDDPASQEIERGKSYLRLRPDRVAMQDATAQMAMLQFISSGLSKVAVPSTIHCDHLIEAQVGGEKDLRRAKDINQEVYNFLATAGAKYGVGFWKPGSGIIHQIILENYAYPGVLLIGTDSHTPNGGGLGGICIGVGGADAVDVMAGIPWELKCPKVIGVKLTGSLSGWSSPKDVILKVAGILTVKGGTGAIVEYHGPGVDSISCTGMATICNMGAEIGATTSVFPYNHRMKKYLSKTGREDIANLADEFKDHLVPDPGCHYDQLIEINLSELKPHINGPFTPDLAHPVAEVGKVAEKEGWPLDIRVGLIGSCTNSSYEDMGRSAAVAKQALAHGLKCKSQFTITPGSEQIRATIERDGYAQILRDLGGIVLANACGPCIGQWDRKDIKKGEKNTIVTSYNRNFTGRNDANPETHAFVTSPEIVTALAIAGTLKFNPETDYLTGTDGKKFRLEAPDADELPKGEFDPGQDTYQHPPKDSSGQHVDVSPTSQRLQLLEPFDKWDGKDLEDLQILIKVKGKCTTDHISAAGPWLKFRGHLDNISNNLLIGAINIENGKANSVRNAVTQEFGPVPDTARYYKKHGIRWVVIGDENYGEGSSREHAALEPRHLGGRAIITKSFARIHETNLKKQGLLPLTFADPADYNKIHPVDKLTIQGLKDFTPGKPLKCIIKHPNGTQETILLNHTFNETQIEWFRAGSALNRMKELQQ
B3: TALDO1 (enzyme, UniProt P37837 1-337)
chain: MSSSPVKRQRMESALDQLKQFTTVVADTGDFHAIDEYKPQDATTNPSLILAAAQMPAYQELVEEAIAYGRKLGGSQEDQIKNAIDKLFVLFGAEILKKIPGRVSTEVDARLSFDKDAMVARARRLIELYKEAGISKDRILIKLSSTWEGIQAGKELEEQHGIHCNMTLLFSFAQAVACAEAGVTLISPFVGRILDWHVANTDKKSYEPLEDPGVKSVTKIYNYYKKFSYKTIVMGASFRNTGEIKALAGCDFLTISPKLLGELLQDNAKLVPVLSAKAAQASDLEKIHLDEKSFRWLHNEDQMAVEKLSDGIRKFAADAVKLERMLTERMFNAENGK
B4: PRDX6 (enzyme, UniProt P30041 1-224)
chain: MPGGLLLGDVAPNFEANTTVGRIRFHDFLGDSWGILFSHPRDFTPVCTTELGRAAKLAPEFAKRNVKLIALSIDSVEDHLAWSKDINAYNCEEPTEKLPFPIIDDRNRELAILLGMLDPAEKDEKGMPVTARVVFVFGPDKKLKLSILYPATTGRNFDEILRVVISLQLTAEKRVATPVDWKDGDSVMVLPTIPEEEAKKLFPKGVFTKELPSGKKYLRYTPQP
B5: PPA1 (enzyme, UniProt Q15181 1-289)
chain: MSGFSTEERAAPFSLEYRVFLKNEKGQYISPFHDIPIYADKDVFHMVVEVPRWSNAKMEIATKDPLNPIKQDVKKGKLRYVANLFPYKGYIWNYGAIPQTWEDPGHNDKHTGCCGDNDPIDVCEIGSKVCARGEIIGVKVLGILAMIDEGETDWKVIAINVDDPDAANYNDINDVKRLKPGYLEATVDWFRRYKVPDGKPENEFAFNAEFKDKDFAIDIIKSTHDHWKALVTKKTNGKGISCMNTTLSESPFKCDPDAARAIVDALPPPCESACTVPTDVDKWFHHQKN
B6: GOT2 (enzyme, UniProt P00505 30-430)
chain: SSWWTHVEMGPPDPILGVTEAFKRDTNSKKMNLGVGAYRDDNGKPYVLPSVRKAEAQIAAKNLDKEYLPIGGLAEFCKASAELALGENSEVLKSGRFVTVQTISGTGALRIGASFLQRFFKFSRDVFLPKPTWGNHTPIFRDAGMQLQGYRYYDPKTCGFDFTGAVEDISKIPEQSVLLLHACAHNPTGVDPRPEQWKEIATVVKKRNLFAFFDMAYQGFASGDGDKDAWAVRHFIEQGINVCLCQSYAKNMGLYGERVGAFTMVCKDADEAKRVESQLKILIRPMYSNPPLNGARIAAAILNTPDLRKQWLQEVKVMADRIIGMRTQLVSNLKKEGSTHNWQHITDQIGMFCFTGLKPEQVERLIKEFSIYMTKDGRISVAGVTSSNVGYLAHAIHQVTK
B7: ECH1 (enzyme, UniProt Q13011 34-328)
chain: TGSSAQEEASGVALGEAPDHSYESLRVTSAQKHVLHVQLNRPNKRNAMNKVFWREMVECFNKISRDADCRAVVISGAGKMFTAGIDLMDMASDILQPKGDDVARISWYLRDIITRYQETFNVIERCPKPVIAAVHGGCIGGGVDLVTACDIRYCAQDAFFQVKEVDVGLAADVGTLQRLPKVIGNQSLVNELAFTARKMMADEALGSGLVSRVFPDKEVMLDAALALAAEISSKSPVAVQSTKVNLLYSRDHSVAESLNYVASWNMSMLQTQDLVKSVQATTENKELKTVTFSKL
B8: GANAB (enzyme, UniProt Q14697 29-944)
chain: ITLAVDRSNFKTCEESSFCKRQRSIRPGLSPYRALLDSLQLGPDSLTVHLIHEVTKVLLVLELQGLQKNMTRFRIDELEPRRPRYRVPDVLVADPPIARLSVSGRDENSVELTMAEGPYKIILTARPFRLDLLEDRSLLLSVNARGLLEFEHQRAPRVSQGSKDPAEGDGAQPEETPRDGDKPEETQGKAEKDEPGAWEETFKTHSDSKPYGPMSVGLDFSLPGMEHVYGIPEHADNLRLKVTEGGEPYRLYNLDVFQYELYNPMALYGSVPVLLAHNPHRDLGIFWLNAAETWVDISSNTAGKTLFGKMMDYLQGSGETPQTDVRWMSETGIIDVFLLLGPSISDVFRQYASLTGTQALPPLFSLGYHQSRWNYRDEADVLEVDQGFDDHNLPCDVIWLDIEHADGKRYFTWDPSRFPQPRTMLERLASKRRKLVAIVDPHIKVDSGYRVHEELRNLGLYVKTRDGSDYEGWCWPGSAGYPDFTNPTMRAWWANMFSYDNYEGSAPNLFVWNDMNEPSVFNGPEVTMLKDAQHYGGWEHRDVHNIYGLYVHMATADGLRQRSGGMERPFVLARAFFAGSQRFGAVWTGDNTAEWDHLKISIPMCLSLGLVGLSFCGADVGGFFKNPEPELLVRWYQMGAYQPFFRAHAHLDTGRREPWLLPSQHNDIIRDALGQRYSLLPFWYTLLYQAHREGIPVMRPLWVQYPQDVTTFNIDDQYLLGDALLVHPVSDSGAHGVQVYLPGQGEVWYDIQSYQKHHGPQTLYLPVTLSSIPVFQRGGTIVPRWMRVRRSSECMKDDPITLFVALSPQGTAQGELFLDDGHTFNYQTRQEFLLRRFSFSGNTLVSSSADPEGHFETPIWIERVVIIGAGKPAAVVLQTKGSPESRLSFQHDPETSVLVLRKPGINVASDWSIHLR
B9: PLCG2 (enzyme, UniProt P16885 1-1265)
chain: MSTTVNVDSLAEYEKSQIKRALELGTVMTVFSFRKSTPERRTVQVIMETRQVAWSKTADKIEGFLDIMEIKEIRPGKNSKDFERAKAVRQKEDCCFTILYGTQFVLSTLSLAADSKEDAVNWLSGLKILHQEAMNASTPTIIESWLRKQIYSVDQTRRNSISLRELKTILPLINFKVSSAKFLKDKFVEIGAHKDELSFEQFHLFYKKLMFEQQKSILDEFKKDSSVFILGNTDRPDASAVYLHDFQRFLIHEQQEHWAQDLNKVRERMTKFIDDTMRETAEPFLFVDEFLTYLFSRENSIWDEKYDAVDMQDMNNPLSHYWISSSHNTYLTGDQLRSESSPEAYIRCLRMGCRCIELDCWDGPDGKPVIYHGWTRTTKIKFDDVVQAIKDHAFVTSSFPVILSIEEHCSVEQQRHMAKAFKEVFGDLLLTKPTEASADQLPSPSQLREKIIIKHKKLGPRGDVDVNMEDKKDEHKQQGELYMWDSIDQKWTRHYCAIADAKLSFSDDIEQTMEEEVPQDIPPTELHFGEKWFHKKVEKRTSAEKLLQEYCMETGGKDGTFLVRESETFPNDYTLSFWRSGRVQHCRIRSTMEGGTLKYYLTDNLTFSSIYALIQHYRETHLRCAEFELRLTDPVPNPNPHESKPWYYDSLSRGEAEDMLMRIPRDGAFLIRKREGSDSYAITFRARGKVKHCRINRDGRHFVLGTSAYFESLVELVSYYEKHSLYRKMRLRYPVTPELLERYNMERDINSLYDVSRMYVDPSEINPSMPQRTVKALYDYKAKRSDELSFCRGALIHNVSKEPGGWWKGDYGTRIQQYFPSNYVEDISTADFEELEKQIIEDNPLGSLCRGILDLNTYNVVKAPQGKNQKSFVFILEPKQQGDPPVEFATDRVEELFEWFQSIREITWKIDTKENNMKYWEKNQSIAIELSDLVVYCKPTSKTKDNLENPDFREIRSFVETKADSIIRQKPVDLLKYNQKGLTRVYPKGQRVDSSNYDPFRLWLCGSQMVALNFQTADKYMQMNHALFSLNGRTGYVLQPESMRTEKYDPMPPESQRKILMTLTVKVLGARHLPKLGRSIACPFVEVEICGAEYDNNKFKTTVVNDNGLSPIWAPTQEKVTFEIYDPNLAFLRFVVYEEDMFSDPNFLAHATYPIKAVKSGFRSVPLKNGYSEDIELASLLVFCEMRPVLESEEELYSSCRQLRRRQEELNNQLFLYDTHQNLRNANRDALVKEFSVNENQLQLYQEKCNKRLREKRVSNSKFYS

This assay has as its target BACH2 (BTB and CNC homology 1, basic leucine zipper transcription factor 2) (human (endogenous in MEC-1)) (UniProt Q9BYV9). Nature of the assay: affinity purification with mass spectrometry; reciprocal co-immunoprecipitation with anti-BACH2 or anti-BCL6 from MEC-1 CLL cells, followed by Orbitrap mass spectrometry.
Consider “proteasome adapter and scaffold proteins (ECPAS) (from UniProt Q5VYK3 1-1845)”, for which the binding entry is listed as “binds”. As to COPB1 (from UniProt P53618 1-953), the binding result is “binds”. With PSMD4 (from UniProt P55036 1-377), the binding entry is given as “binds”. As for “FUBP1 (far upstream element binding protein 1) (from UniProt Q96AE4 1-644)”, the entry is “binds”.

In the case of PSMD14 (from UniProt O00487 1-310), the binding entry is “binds”.

For PSMA1 (from UniProt P25786 1-263), the binding entry is on record as “binds”. Take “GOT1 (from UniProt P17174 1-413) (enzyme)”: the binding entry is reported as “binds”. As for EXOSC6 (from UniProt Q5RKV6 1-272), the entry is “binds”; as for DYNC1H1 (from UniProt Q14204 1-4646), “binds”; as for DSP (from UniProt P15924 1-2871), “binds”. In the case of RAD23B (from UniProt P54727 1-409), the binding entry was “binds”. The result for RHOG (from UniProt P84095 1-191) reads “binds”; that for B1, “binds”. The result for B2 reads “binds”; that for B3, “binds”. The result for B4 reads “binds”. On to B5, for which the binding entry is listed as “binds”. B6: the binding result was “binds”.

Consider B7, for which the binding result is recorded as “binds”. As for B8, the entry is “binds”; as for B9, “binds”.
